Literature values in paper PMC3974814, “In Vitro Evaluation of the Inhibitory Potential of Pharmaceutical Excipients on Human Carboxylesterase 1A and 2” (PLoS ONE, 2014).

Molecular target: CES1A1 and CES2
Parameters: method as in PMID 20810539
Settings: human CES enzyme activity; isoform per drug not stated; read-out: inhibition constant (Ki); cited from earlier work

SMILES: CC(C)OC(=O)C(C)(C)Oc1ccc(C(=O)c2ccc(Cl)cc2)cc1 [fenofibrate]
- Ki: 0.04 µM
